{"source": "PubChem BioAssay AID1259308 (NCATS, 2017)", "aim": "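Knock-downs that increase output of a recombinant reporter protein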 (primary screen)", "system": "human HEK293 embryonic kidney cells stably expressing firefly luciferase (HEK-CMV-Luc2-Hygro)", "reagents": "single siRNA against human genes, 0.8 pmol siRNA per well", "time to read-out": "72 h", "read-out": "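Reporter luminescence and viable-cell signal on separate replicate plates, given as percent of non-targeting control and median/MAD z-scores, plus per-cell luciferase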", "scale": "total luciferase, z-score and total luciferase, % of control: higher = more reporter protein produced", "call rule": "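Active when the median/MAD z-score for overall luciferase is greater than 3; a gene was taken forward for validation with new siRNAs if at least two of its three siRNAs passed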", "meaning of the calls": "active = raised luciferase; inactive = no rise", "note": "This is an unselected part of about 59,000 reagents. In the full data, about 1,510 (2.6%) were called active. 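Calls use total luciferase alone and ignore viability, so some active siRNAs may act by altering cell number.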 The numbers tell different reagents against one gene apart. Further read-outs or replicates are left out here. Reagent sequences are not shown."}
{"Target gene":"FRMD1 (GeneID 79981)","reagent no.":1,"total luciferase, z-score":0.0316,"total luciferase, % of control":82.5,"activity call":"inactive"}
{"Target gene":"FRMD1 (GeneID 79981)","reagent no.":2,"total luciferase, z-score":0.715,"total luciferase, % of control":96.1,"activity call":"inactive"}
{"Target gene":"FRMD1 (GeneID 79981)","reagent no.":3,"total luciferase, z-score":0.421,"total luciferase, % of control":90.3,"activity call":"inactive"}
{"Target gene":"CDK1 (GeneID 983)","reagent no.":1,"total luciferase, z-score":-0.85,"total luciferase, % of control":65,"activity call":"inactive"}
{"Target gene":"CDK1 (GeneID 983)","reagent no.":2,"total luciferase, z-score":-0.695,"total luciferase, % of control":68.1,"activity call":"inactive"}
{"Target gene":"CDK1 (GeneID 983)","reagent no.":3,"total luciferase, z-score":0.0249,"total luciferase, % of control":82.4,"activity call":"inactive"}

The list goes on, starting with the last 2 of the part before.
{"Target gene":"CDK1 (GeneID 983)","reagent no.":2,"total luciferase, z-score":-0.695,"total luciferase, % of control":68.1,"activity call":"inactive"}
{"Target gene":"CDK1 (GeneID 983)","reagent no.":3,"total luciferase, z-score":0.0249,"total luciferase, % of control":82.4,"activity call":"inactive"}
{"Target gene":"RPL12P2 (GeneID 646875)","reagent no.":1,"total luciferase, z-score":-0.869,"total luciferase, % of control":64.6,"activity call":"inactive"}
{"Target gene":"RPL12P2 (GeneID 646875)","reagent no.":2,"total luciferase, z-score":0.364,"total luciferase, % of control":89.1,"activity call":"inactive"}
{"Target gene":"RPL12P2 (GeneID 646875)","reagent no.":3,"total luciferase, z-score":-0.521,"total luciferase, % of control":71.5,"activity call":"inactive"}
{"Target gene":"LAIR2 (GeneID 3904)","reagent no.":1,"total luciferase, z-score":-0.345,"total luciferase, % of control":75,"activity call":"inactive"}
{"Target gene":"LAIR2 (GeneID 3904)","reagent no.":2,"total luciferase, z-score":2.25,"total luciferase, % of control":127,"activity call":"inactive"}
{"Target gene":"LAIR2 (GeneID 3904)","reagent no.":3,"total luciferase, z-score":-0.903,"total luciferase, % of control":63.9,"activity call":"inactive"}
